Our source for the AC50 values is PubChem BioAssay AID901 (National Center for Advancing Translational Sciences (NCATS), 2007).

“And” between values parts separate entries of the source, which are not always exact repeats. Identical values can stand only once. The list shows a part of the results. Further columns of the screen follow, without active or inactive calls. Compounds called inactive in the main read-out are mostly missing here. The note in brackets gives the kind of curve behind each potency; many fits are weak.

The test in a line: qHTS Assay for Identifying the Cell-Membrane Permeable IMPase Inhibitors. As to conditions: CHO-M1 cells, IP1 accumulation, HTRF TR-FRET ratio; measured here: donor channel 620 nm AC50. Background: qHTS replaces the single test concentration by a dilution series.
As usually defined, the AC50 is the concentration giving half of the maximal activity seen. `COC(=O)c1c(NC(=O)CCCOc2cccc(C)c2)sc2c1CCC(C)C2` (configuration not stated): the AC50 is 20 µM [rising, single point].
Then `O=C(CSc1nnnn1-c1ccc2c(c1)CCC2)Nc1ccc2c(c1)OCCO2`, with 0.0355 µM [falling, full curve]; and `CCSC(=O)N(CC)CC(=O)Nc1c(CC)cccc1CC`, with 5.01 µM [falling, single point]; and `COc1cc(OC)cc(-c2cc(NC(C)=O)n[nH]2)c1`, with 7.08 µM [falling, single point].
Then `O=C(CNS(=O)(=O)c1ccc(Br)s1)NCc1ccc2c(c1)OCO2`, with 2 µM [falling, partial curve, poor fit].
The result for `CCOC(=O)COc1ccc2cc(C(=O)OCC)c(=O)oc2c1` reads 0.501 µM [rising, full curve, poor fit]; that for `CCCCCCC(=O)Nc1nnc(CC)s1`, 5.01 µM [falling, single point]; that for `c1ccc2[nH]c(CN3CCN(c4ncnc5c4oc4ccccc45)CC3)nc2c1`, 31.6 µM [falling, single point].
With `O=C(O)CCCC(=O)Nc1c(F)c(F)c(F)c(F)c1F`, the AC50 was 0.501 µM [falling, full curve, poor fit].
Then `COc1ccc(NC(=O)CSc2nc(-c3ccccc3)cc(-c3cc(OC)c(OC)c(OC)c3)c2C#N)c(OC)c1`, with 22.4 µM [rising, single point].
In the case of `O=C(NCc1ccco1)c1cc2ccc(O)cc2oc1=O`, the AC50 is 5.01 µM [rising, single point].
Then `O=C(CSc1nnc(-c2ccco2)o1)N1CCOCC1`, with 31.6 µM [falling, single point]; and `Cn1cc(S(=O)(=O)CC(=O)Nc2ccc3c(c2)OCCO3)c2ccccc21`, with 0.251 µM [falling, full curve, poor fit]; and `CCOC(=O)c1cc2sccc2n1Cc1ccccc1`, with 0.02 µM [falling, full curve, poor fit].
Then `CCOc1cc(CNc2ccc(N(C)C)cc2)cc(Br)c1OCC(=O)NC(C)(C)C`, with 5.01 µM [falling, partial curve]; and `CCOC(=O)c1ccc(NC(=O)C2CCN(C(=O)c3ccc(OC)c(OC)c3)CC2)cc1`, with 6.31 µM [falling, single point].
The result for `C=CCn1c(SCC(=O)c2cc(C)n(Cc3cccs3)c2C)nnc1-c1ccncc1` reads 0.224 µM [falling, full curve, poor fit].
In the case of `CCNc1c([N+](=O)[O-])ncn1C`, the AC50 is 0.0251 µM [falling, full curve, poor fit].
Then `CC(=O)c1ccc(NC(=O)c2ccc(CSc3ccccc3)o2)cc1`, with 15.8 µM [rising, single point]; and `Cc1cc(=O)[nH]c2c1cnn2Cc1ccccc1`, with 0.00631 µM [falling, full curve]; and `Cc1nn(C)c(C)c1CN(C)C(=O)CCCC(=O)O`, with 0.126 µM [rising, single point].
For `O=S(=O)(c1ccc(F)cc1)N1CCN(c2ncnc3c2cnn3-c2ccccc2)CC1`, the AC50 is 0.126 µM [rising, full curve, poor fit].
For the compound `O=C(N/N=C/c1ccc(O)cc1)c1csc2ccccc12`, the AC50 was 5.01 µM [rising, single point].
Then `O=C(COC(=O)CCCSc1nc2ccccc2[nH]1)NC(=O)NC1CCCC1`, with 0.2 µM [rising, full curve, poor fit]; and `O=C(Nc1ccc(Cl)c(Cl)c1)N(Cc1cccnc1)Cc1ccco1`, with 6.31 µM [rising, full curve].
Then `O=S(=O)(c1ccc(Cl)cc1)N1CCCC1c1nc(-c2ccc(Cl)cc2)no1` (configuration not stated), with 0.00501 µM [falling, full curve, poor fit].
Then `C=C1CSc2nc3ccccc3c(=O)n21`, with 0.02 µM [falling, full curve]; and `CCCNc1nc2c(c(=O)n(C)c(=O)n2C)n1CCc1ccccc1`, with 3.16 µM [rising, single point].
With `CC(C)(C)OC(=O)NCCC(=O)Oc1ccc2ccc(=O)oc2c1`, the AC50 is 25.1 µM [rising, single point].
Take `O=C(NC1CCCCC1)N1CCCC(c2nc(-c3cccs3)no2)C1` (configuration not stated): the AC50 was 20 µM [falling, single point].
The result for `CC(C)NC(=O)C(Cc1ccccc1)N1C(=O)c2ccccc2C1=O` (configuration not stated) reads 0.251 µM [rising, single point]; that for `Cc1nc(SCC(=O)Nc2ccc(C)c(F)c2)c2oc3ccccc3c2n1`, 25.1 µM [rising, single point]; that for `CCn1cc(C(=O)Nc2cccc(NC(C)=O)c2)c2cc(OC)c(OC)cc2c1=O`, 0.0316 µM [rising, full curve, poor fit].
Turning to `O=c1c(O)c(-c2cc(O)c(O)c(O)c2)oc2cc(O)cc(O)c12`, the AC50 was 794 nM [falling, full curve, poor fit] and 2 nM [falling, full curve, poor fit].
The result for `CCc1nnc(NC(=O)CSc2nc3c(cc2C#N)CCC3)s1` reads 31.6 µM [rising, single point]; that for `Nc1nc2ccc(S(=O)(=O)N3CCCCC3)cc2s1`, 0.01 µM [rising, full curve].
Then `COc1ccc(NC(=O)CN2CCN(S(=O)(=O)c3ccc(Cl)cc3)CC2)cc1`, with 4.47 µM [rising, single point]; and `Cn1c(=O)[nH]c(=O)c2c1nc(CN1CCOCC1)n2CCc1ccccc1`, with 20 µM [rising, partial curve]; and `COc1ccc(NC(=S)NCCc2ccc(Cl)cc2)c(OC)c1`, with 0.01 µM [rising, full curve, poor fit].
Then `Cc1csc(NC(=O)NC2(C(F)(F)F)Oc3ccccc3O2)n1`, with 0.501 µM [falling, partial curve, poor fit].
Take `CCOc1ccc(Cn2c(SCCCCC#N)nc3c2c(=O)n(C)c(=O)n3C)cc1OCC`: the AC50 is 0.01 µM [rising, full curve].
Then `Cn1c(=O)c2c(nc(NCCNC(=O)c3ccco3)n2Cc2ccc(Cl)cc2Cl)n(C)c1=O`, with 5.01 µM [falling, partial curve]; and `CCCC(=O)Nc1nc(C)c(-c2csc(Nc3ccccc3OC)n2)s1`, with 1 µM [rising, partial curve].
With `CCC1Oc2ccc(C)cc2N(CC(=O)N2CCN(c3ccc(F)cc3)CC2)C1=O` (configuration not stated), the AC50 was 0.562 µM [rising, full curve, poor fit].
As for `CCCCCOc1ccc(Br)cc1/C(C)=N/NC1=NCCN1`, the AC50 is 25.1 µM [falling, partial curve, poor fit].
In the case of `CS(=O)(=O)Nc1nnc(Cc2ccccc2)s1`, the AC50 is 0.158 µM [falling, full curve].
Then `Cc1ccc(CNC(=O)CCCC(=O)O)cc1`, with 0.316 µM [falling, full curve, poor fit]; and `Cc1ccc2nsnc2c1S(=O)(=O)N(Cc1ccco1)Cc1cc2cccc(C)c2[nH]c1=O`, with 3.98 µM [rising, single point].
The result for `Nc1nnc(SCc2ccc3c(c2)OCO3)s1` reads 1.26 µM [falling, partial curve, poor fit]; that for `O=C(CSc1n[nH]c(-c2cccs2)n1)NCc1cccs1`, 0.00501 µM [falling, full curve, poor fit]; that for `COc1ccc(NC(=O)O/N=C2/CCCc3ccc(OC)cc32)cc1`, 5.01 µM [falling, full curve, poor fit].
On to `Cc1cc(C)c2c(n1)nn1c(NCCN3CCOCC3)cc(C)nc21`, for which the AC50 is 1 µM [falling, single point].
Then `CC(=O)NC1(C(F)(F)F)C(=O)Nc2c1c(=O)n(C)c(=O)n2C` (configuration not stated), with 0.0398 µM [falling, full curve, poor fit].
The result for `COC(=O)C1=C(O)/C(=C\c2ccc(O)c(OC)c2)N=C1C` reads 10 µM [falling, partial curve]; that for `O=C(Nc1ccc(Cl)cc1)c1ccncc1`, 0.0398 µM [falling, full curve, poor fit]; that for `O=C(Nn1c(O)c(C=C2N=c3ccccc3=N2)sc1=S)c1ccc(Cl)cc1`, 31.6 µM [falling, single point].
Then `O=C(CSc1nc2ccsc2c(=O)n1NC(=O)c1ccccc1)Nc1nccs1`, with 6.31 µM [falling, single point].
On to `O=C(Nc1ccccc1)O/N=C/c1ccncc1`, for which the AC50 was 3.98 µM [rising, partial curve].
The result for `COc1ccc(OCc2ccc(-c3nc4ccccc4c(=O)n3N)o2)cc1` reads 0.794 µM [falling, full curve, poor fit]; that for `O=C(NCCNC(=O)c1cc(OCC(F)(F)F)ccc1OCC(F)(F)F)Nc1ccc(OC(F)(F)F)cc1`, 6.31 µM [rising, single point]; that for `COc1ccc2[nH]c(C(=O)O)c(NS(=O)(=O)c3ccc(Cl)s3)c2c1`, 1.58 µM [rising, partial curve, poor fit].
As to `N#CC(=C=[N-])c1nc2ccccc2nc1-[n+]1ccccc1`, the AC50 was 1.58 µM [falling, partial curve, poor fit].
The result for `COC(=O)c1ccc(NC(=O)C23CC4CC(C2)CC(n2cncn2)(C4)C3)cc1` reads 0.251 µM [falling, full curve]; that for `Cc1cc2c(N=O)c(NO)ccc2[nH]1`, 15.8 µM [falling, single point].
Then `CCn1c(=O)sc2cc(NS(=O)(=O)c3ccc(F)c(C)c3)ccc21`, with 0.0224 µM [falling, full curve, poor fit].
As for `COc1cccc(C(=O)N=c2sc3c(C)ccc(OC)c3n2C)c1`, the AC50 is 31.6 µM [rising, single point].
In the case of `O=C1C=C(Nc2ccccc2O)c2ccccc2C1=O`, the AC50 was 10 µM [falling, partial curve, poor fit].
